Laboratory results reported in patent US20110038804A1, “MR IMAGING AGENT, IMAGING MEDIUM AND METHODS OF IMAGING WHEREIN SUCH AN IMAGING MEDIUM IS USED” (priority 2007, published 2011).

Legend:
[1] = Solid state polarisation after dynamic nuclear polarisation, by solid state 13C-NMR; format: physicochemical; settings: DNP at 1.2 K, 3.35 T, microwave 93.89 GHz, trityl radical and Gd-chelate
[2] = Liquid state polarisation after dissolution, by liquid state 13C-NMR at 400 MHz; format: physicochemical
[3] = salt polarised directly, 120 minutes DNP, dissolved in phosphate buffer pH 7.3, 50 mM

Compound	solid state polarisation [1]	liquid state polarisation ([2]; obtained from polarised 13C1-α-ketoisocaproic acid, 90 minutes DNP, dissolved in phosphate buffer/NaOH, pH 7.3, 50 mM) [%]	liquid state polarisation [2, 3] [%]
CC(C)CC(=O)[13C](=O)O [^13C1-α-ketoisocaproic acid]	27%		
CC(C)CC(=O)[13C](=O)[O-].[Na+] [sodium ^13C1-α-ketoisocaproate]	approximately 30%	25	29
CC(C)CC(=O)[13C](=O)O.NC(CO)(CO)CO [TRIS-^13C1-α-ketoisocaproate]	36%		34
